# Source: the supplement of paper PMC8728848
# The list shows a part of the results.
# B1: cFel (Cyprinus carpio), P68512 (protein)
# chain: LDCTVIDGNLKQIDAGSGSVVGVNNLNETFVLIDNVFTKISGSLKHFSVGPAGQLGVNTANNIFKYQSGGFVQLAGLLKQVDAGGDQIIAGVNMYDDIYCLNMDANNKWPSSNTPWVQINGKLKYYSCGPYSCWGVNSNDQIFIMKDVSSNVCSGSGSFINIPGLLSMIEVATDGSVFGVNSQGNLYQRTGVTRSKPDGTDWISMVACPNGHKHVSFDLGVLWLVCVDGSIRKCILTD
# Tests used:
# Assay in all cases: glycan array binding signal (z-score within array); higher = stronger binding
# Settings in all cases: glycan notation: IUPAC condensed, linker removed
# Gal6S(b1-4)Glc = molecular target: Gal6S(b1-4)Glc
# In short: (§1)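 Glycan array data came from 3228 arrays in the Consortium for Functional Glycomics database, and only arrays with an available protein sequence were kept. Glycan names were put into IUPAC-condensed notation, and columns mapping to the same glycan were averaged. The binding signal is a within-array Z-score, averaged across arrays of one protein sequence run at different concentrations or buffers and across linkers. A negative Z-score can be read as non-binding.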
# Gal6S(b1-4)Glc6S = molecular target: Gal6S(b1-4)Glc6S
# In short: as §1
# Gal6S(b1-4)GlcNAc = molecular target: Gal6S(b1-4)GlcNAc
# In short: as §1
# Gal6S(b1-4)GlcNAc6S = molecular target: Gal6S(b1-4)GlcNAc6S
# In short: as §1
# GalNAc(a1-3)Gal = molecular target: GalNAc(a1-3)Gal
# In short: as §1
# GalNAc(a1-3)GalNAc = molecular target: GalNAc(a1-3)GalNAc
# In short: as §1
# [1] = molecular target: GalNAc(a1-3)GalNAc(b1-3)Gal(a1-4)Gal(b1-4)Glc
# In short: as §1
# [2] = molecular target: GalNAc(a1-3)GalNAc(b1-3)Gal(a1-4)Gal(b1-4)GlcNAc
# In short: as §1
# GalNAc(b1-3)Gal = molecular target: GalNAc(b1-3)Gal
# In short: as §1
# [3] = molecular target: GalNAc(b1-3)Gal(a1-4)Gal(b1-4)GlcNAc
# In short: as §1
# [4] = molecular target: GalNAc(b1-3)Gal(a1-4)Gal(b1-4)GlcNAc(b1-3)Gal(b1-4)Glc
# In short: as §1
# [5] = molecular target: GalNAc(b1-3)Gal(a1-6)Gal(b1-4)Glc
# In short: as §1
# GalNAc(b1-3)GalNAc = molecular target: GalNAc(b1-3)GalNAc
# In short: as §1
# GalNAc(b1-3)GlcNAc = molecular target: GalNAc(b1-3)GlcNAc
# In short: as §1
# GalNAc(b1-4)Gal(b1-4)Glc = molecular target: GalNAc(b1-4)Gal(b1-4)Glc
# In short: as §1
# GalNAc(b1-4)GlcNAc = molecular target: GalNAc(b1-4)GlcNAc
# In short: as §1
# [6] = molecular target: GalNAc(b1-4)GlcNAc(b1-2)Man
# In short: as §1
# [7] = molecular target: GalNAc(b1-4)GlcNAc(b1-2)Man(a1-3)[GalNAc(b1-4)GlcNAc(b1-2)Man(a1-6)]Man(b1-4)GlcNAc(b1-4)GlcNAc
# In short: as §1
# [8] = molecular target: GalNAc(b1-4)GlcNAc(b1-3)GalNAc(b1-4)GlcNAc
# In short: as §1
# GalNAc(b1-4)GlcNAc6S = molecular target: GalNAc(b1-4)GlcNAc6S
# In short: as §1
# GalNAc(b1-6)GalNAc = molecular target: GalNAc(b1-6)GalNAc
# In short: as §1
# GalNAc3S(b1-4)GlcNAc = molecular target: GalNAc3S(b1-4)GlcNAc
# In short: as §1
# GalNAc3S(b1-4)GlcNAc3S = molecular target: GalNAc3S(b1-4)GlcNAc3S
# In short: as §1
# [9] = molecular target: GalNAc3S(b1-4)[Fuc(a1-3)]GlcNAc
# In short: as §1
# GalNAc4S6S(b1-4)GlcNAc = molecular target: GalNAc4S6S(b1-4)GlcNAc
# In short: as §1
# GalNAc6S(b1-4)GlcNAc = molecular target: GalNAc6S(b1-4)GlcNAc
# In short: as §1
# Glc(a1-4)Glc = molecular target: Glc(a1-4)Glc
# In short: as §1
# [10] = molecular target: Glc(a1-4)Glc(a1-4)Glc(a1-4)Glc
# In short: as §1
# Glc(a1-6)Glc(a1-6)Glc = molecular target: Glc(a1-6)Glc(a1-6)Glc
# In short: as §1
# [11] = molecular target: Glc(a1-6)Glc(a1-6)Glc(a1-6)Glc
# In short: as §1
# Glc(b1-4)Glc = molecular target: Glc(b1-4)Glc
# In short: as §1
# Glc(b1-6)Glc = molecular target: Glc(b1-6)Glc
# In short: as §1
# GlcA(b1-3)Gal = molecular target: GlcA(b1-3)Gal
# In short: as §1
# GlcA(b1-3)GlcNAc = molecular target: GlcA(b1-3)GlcNAc
# In short: as §1
# GlcA(b1-6)Gal = molecular target: GlcA(b1-6)Gal
# In short: as §1
# [12] = molecular target: GlcA3S(b1-3)Gal(b1-4)GlcNAc(b1-2)Man
# In short: as §1
# [13] = molecular target: GlcA3S(b1-3)Gal(b1-4)GlcNAc(b1-3)Gal(b1-4)Glc
# In short: as §1
# [14] = molecular target: GlcNAc(a1-3)Gal(b1-4)GlcNAc
# In short: as §1
# [15] = molecular target: GlcNAc(a1-4)Gal(b1-3)GlcNAc
# In short: as §1
# [16] = molecular target: GlcNAc(a1-4)Gal(b1-4)GalNAc
# In short: as §1
# [17] = molecular target: GlcNAc(a1-4)Gal(b1-4)GlcNAc
# In short: as §1
# [18] = molecular target: GlcNAc(a1-4)Gal(b1-4)GlcNAc(b1-3)Gal(b1-4)Glc
# In short: as §1
# [19] = molecular target: GlcNAc(a1-4)Gal(b1-4)GlcNAc(b1-3)Gal(b1-4)GlcNAc
# In short: as §1
# [20] = molecular target: GlcNAc(a1-4)Gal(b1-4)GlcNAc(b1-3)Gal(b1-4)GlcNAc(b1-3)Gal(b1-4)GlcNAc
# In short: as §1
# [21] = molecular target: GlcNAc(a1-4)Gal(b1-4)GlcNAc(b1-3)Gal(b1-4)[Fuc(a1-3)]GlcNAc(b1-3)Gal(b1-4)[Fuc(a1-3)]GlcNAc
# In short: as §1
binder,measurement,setting,value
B1,glycan array binding signal (z-score),Gal6S(b1-4)Glc,0.048
same,glycan array binding signal (z-score),Gal6S(b1-4)Glc6S,-0.08
same,glycan array binding signal (z-score),Gal6S(b1-4)GlcNAc,-0.727
same,glycan array binding signal (z-score),Gal6S(b1-4)GlcNAc6S,-1.31
same,glycan array binding signal (z-score),GalNAc(a1-3)Gal,0.811
same,glycan array binding signal (z-score),GalNAc(a1-3)GalNAc,-0.516
same,glycan array binding signal (z-score),[1],-0.692
same,glycan array binding signal (z-score),[2],-0.361
same,glycan array binding signal (z-score),GalNAc(b1-3)Gal,0.381
same,glycan array binding signal (z-score),[3],4.96
same,glycan array binding signal (z-score),[4],-0.955
same,glycan array binding signal (z-score),[5],0.724
same,glycan array binding signal (z-score),GalNAc(b1-3)GalNAc,-0.776
same,glycan array binding signal (z-score),GalNAc(b1-3)GlcNAc,-0.979
same,glycan array binding signal (z-score),GalNAc(b1-4)Gal(b1-4)Glc,-0.762
same,glycan array binding signal (z-score),GalNAc(b1-4)GlcNAc,0.605
same,glycan array binding signal (z-score),[6],-0.598
same,glycan array binding signal (z-score),[7],1.66
same,glycan array binding signal (z-score),[8],-1.27
same,glycan array binding signal (z-score),GalNAc(b1-4)GlcNAc6S,-0.823
same,glycan array binding signal (z-score),GalNAc(b1-6)GalNAc,2.47
same,glycan array binding signal (z-score),GalNAc3S(b1-4)GlcNAc,-0.547
same,glycan array binding signal (z-score),GalNAc3S(b1-4)GlcNAc3S,-0.289
same,glycan array binding signal (z-score),[9],-0.396
same,glycan array binding signal (z-score),GalNAc4S6S(b1-4)GlcNAc,-0.77
same,glycan array binding signal (z-score),GalNAc6S(b1-4)GlcNAc,-0.23
same,glycan array binding signal (z-score),Glc(a1-4)Glc,0.518
same,glycan array binding signal (z-score),[10],-0.245
same,glycan array binding signal (z-score),Glc(a1-6)Glc(a1-6)Glc,-0.726
same,glycan array binding signal (z-score),[11],0.658
same,glycan array binding signal (z-score),Glc(b1-4)Glc,0.633
same,glycan array binding signal (z-score),Glc(b1-6)Glc,-0.521
same,glycan array binding signal (z-score),GlcA(b1-3)Gal,-0.368
same,glycan array binding signal (z-score),GlcA(b1-3)GlcNAc,-0.97
same,glycan array binding signal (z-score),GlcA(b1-6)Gal,0.627
same,glycan array binding signal (z-score),[12],0.428
same,glycan array binding signal (z-score),[13],-0.849
same,glycan array binding signal (z-score),[14],0.117
same,glycan array binding signal (z-score),[15],-0.902
same,glycan array binding signal (z-score),[16],0.672
same,glycan array binding signal (z-score),[17],-0.281
same,glycan array binding signal (z-score),[18],-0.623
same,glycan array binding signal (z-score),[19],-0.616
same,glycan array binding signal (z-score),[20],-0.344
same,glycan array binding signal (z-score),[21],-0.963

# Given with bars between the fields: entries from further up
binder | measurement | setting | value
B1 | glycan array binding signal (z-score) | GalNAc4S6S(b1-4)GlcNAc | -0.77
same | glycan array binding signal (z-score) | GalNAc6S(b1-4)GlcNAc | -0.23
same | glycan array binding signal (z-score) | Glc(a1-4)Glc | 0.518
same | glycan array binding signal (z-score) | [10] | -0.245
same | glycan array binding signal (z-score) | Glc(a1-6)Glc(a1-6)Glc | -0.726
same | glycan array binding signal (z-score) | [11] | 0.658
same | glycan array binding signal (z-score) | Glc(b1-4)Glc | 0.633
same | glycan array binding signal (z-score) | Glc(b1-6)Glc | -0.521
same | glycan array binding signal (z-score) | GlcA(b1-3)Gal | -0.368
same | glycan array binding signal (z-score) | GlcA(b1-3)GlcNAc | -0.97
